PubChem BioAssay AID1259424, University of Nebraska Medical Center – 2018
Screen: 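Rank knockdowns across the genome by resemblance to the KSR1 depletion profile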 (primary screen). System: human HCT116 colon cancer cells. Knock-down reagent: siRNA pool against human genes, 50 nM. Measurement: 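Log2 levels of six mRNAs (branched-DNA multiplex), adjusted by two reference genes and the non-targeting median, then scored against the average KSR1 knockdown pattern as Pearson r and euclidean distance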. Reading the numbers: mean correlation with KSR1 profile and KSR1 correlation: higher = expression change more like KSR1 knockdown; mean distance from KSR1 profile: higher = expression change less like KSR1 knockdown.
Shown is one part, drawn at random, of about 14,000 reagents tested. 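Higher correlation or smaller distance means closer resemblance to KSR1 loss; control wells, including KSR1 knockdowns, recur on many plates.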 Not stated in the record: the time to read-out.

The opening 2 records, ahead of the listing:
| Gene | mean correlation with KSR1 profile | mean distance from KSR1 profile | KSR1 correlation, replicate 1 | KSR1 correlation, replicate 2 | KSR1 correlation, replicate 3 |
| --- | --- | --- | --- | --- | --- |
| HDAC9 | -0.447 | 1.89 | -0.418 | -0.564 | -0.288 |
| AOC2 | -0.388 | 3.37 | -0.23 | -0.5 | -0.445 |

Results, from the start:
| Gene | mean correlation with KSR1 profile | mean distance from KSR1 profile | KSR1 correlation, replicate 1 | KSR1 correlation, replicate 2 | KSR1 correlation, replicate 3 |
| --- | --- | --- | --- | --- | --- |
| HDAC9 | -0.447 | 1.89 | -0.418 | -0.564 | -0.288 |
| AOC2 | -0.388 | 3.37 | -0.23 | -0.5 | -0.445 |
| PLXNB1 | -0.403 | 2.59 | -0.652 | 0.091 | -0.505 |
| FYN | 0.211 | 1.59 | 0.213 | 0.25 | -0.39 |
| PRPS1L1 | 0.326 | 1.35 | 0.343 | 0.555 | -0.502 |
| ZNF211 | -0.614 | 3.59 | -0.526 | -0.671 | -0.605 |
| GPATCH4 | 0.00716 | 2.06 | 0.38 | 0.301 | -0.135 |
| CES3 | 0.666 | 1.44 | 0.704 | 0.654 | 0.472 |
| HAUS1 | -0.379 | 5.48 | -0.498 | -0.476 | -0.384 |
| KLHL11 | -0.797 | 5.9 | -0.409 | -0.472 | -0.562 |
| PLSCR2 | -0.546 | 4.65 | -0.614 | -0.353 | -0.438 |
| TSHB | 0.357 | 1.73 | 0.421 | 0.593 | 0.295 |
| KRTAP3-3 | 0.272 | 2.16 | 0.373 | -0.0229 | -0.079 |
| ENAH | -0.529 | 1.99 | -0.655 | -0.453 | -0.705 |
| MANEA | 0.305 | 2.39 | 0.282 | 0.443 | 0.22 |
| MTMR4 | 0.397 | 2.34 | 0.349 | 0.469 | 0.43 |
| COCH | -0.267 | 1.75 | -0.161 | -0.306 | -0.277 |
| LILRA6 | -0.366 | 2.11 | -0.383 | -0.426 | -0.424 |
| SOAT2 | 0.406 | 2.43 | 0.36 | 0.427 | 0.358 |
| SPTSSB | -0.707 | 1.92 | -0.454 | -0.754 | -0.607 |
| VIM | -0.562 | 2.54 | -0.455 | -0.564 | -0.664 |
| RNF8 | 0.27 | 1.03 | -0.198 | 0.447 | -0.0654 |
| UBE2D2 | 0.23 | 2.13 | 0.24 | 0.142 | 0.25 |
| GARIN1B | 0.189 | 3.02 | 0.273 | -0.814 | 0.224 |
| NAT8B | -0.339 | 1.66 | -0.274 | -0.309 | -0.138 |
| RSL24D1 | -0.167 | 2.44 | -0.301 | -0.0957 | 0.232 |
| SULT1C4 | 0.344 | 1.2 | 0.199 | 0.147 | -0.0756 |
| CAPRIN2 | -0.224 | 1.97 | -0.421 | -0.469 | -0.175 |
| MED29 | -0.365 | 1.55 | -0.396 | -0.387 | -0.314 |
| MTCL1 | -0.795 | 3.04 | -0.703 | -0.711 | -0.792 |
| SIT1 | -0.459 | 2.8 | -0.272 | -0.544 | -0.485 |
| TRIL | -0.378 | 2.13 | -0.316 | -0.245 | -0.416 |
| SDC4 | 0.626 | 2.77 | 0.379 | 0.66 | 0.537 |
| CTDSP2 | -0.204 | 2.18 | -0.162 | -0.368 | -0.0628 |
| GCA | 0.00582 | 2.17 | 0.157 | -0.125 | -0.0088 |
| SSPN | 0.566 | 2.52 | 0.442 | 0.54 | 0.644 |
| CHAF1A | 0.473 | 2.95 | 0.325 | 0.504 | 0.552 |
| TAF9 | -0.0272 | 1.72 | 0.151 | 0.582 | -0.204 |
| KCNA5 | -0.355 | 2.18 | -0.268 | -0.445 | -0.396 |
| CBR1 | -0.0925 | 2.52 | 0.00994 | -0.176 | -0.293 |
| MAK | 0.629 | 0.924 | 0.875 | 0.657 | 0.262 |
| APOA2 | 0.625 | 0.854 | 0.655 | 0.443 | 0.0724 |
| JMJD1C | -0.0616 | 1.08 | 0.321 | -0.475 | -0.251 |
| STX5 | -0.672 | 1.73 | -0.694 | -0.782 | -0.106 |
| CDH6 | 0.403 | 1.5 | 0.384 | 0.483 | 0.424 |
| RHOBTB1 | 0.784 | 1.76 | 0.872 | 0.783 | 0.612 |
| LIMS2 | -0.394 | 1.8 | -0.613 | -0.365 | -0.564 |
| PHF14 | -0.23 | 3.82 | -0.162 | -0.288 | -0.071 |
| DFFB | -0.328 | 2.02 | -0.36 | -0.373 | -0.215 |
| RPL38 | 0.193 | 1.23 | 0.161 | 0.0788 | 0.292 |
